These are yes or no findings as the source states them, for the method shown. Binding seen in cells or lysates may run through a third protein. Some entries that bind do so weakly or less than the wild type. For part of these data: Sequences can lack the tags named with a protein.
T1: Kv1.1-nanoluc (human), Q09470
T1 chain: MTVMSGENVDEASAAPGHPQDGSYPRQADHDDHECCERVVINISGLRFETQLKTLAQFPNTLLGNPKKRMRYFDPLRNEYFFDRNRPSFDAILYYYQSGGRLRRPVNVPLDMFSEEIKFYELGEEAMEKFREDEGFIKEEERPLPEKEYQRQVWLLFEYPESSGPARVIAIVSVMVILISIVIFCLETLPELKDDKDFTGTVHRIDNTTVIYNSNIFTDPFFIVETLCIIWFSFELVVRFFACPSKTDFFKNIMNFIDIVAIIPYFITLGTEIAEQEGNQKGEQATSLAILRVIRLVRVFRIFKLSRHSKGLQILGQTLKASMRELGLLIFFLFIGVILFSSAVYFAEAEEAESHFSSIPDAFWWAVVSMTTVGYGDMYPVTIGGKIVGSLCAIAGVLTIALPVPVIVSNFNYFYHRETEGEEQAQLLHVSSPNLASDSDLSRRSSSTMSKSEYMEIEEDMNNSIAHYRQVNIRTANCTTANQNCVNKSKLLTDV

Chains of the proteins cited; added tags and fusions are not shown.
UniProt Q01650: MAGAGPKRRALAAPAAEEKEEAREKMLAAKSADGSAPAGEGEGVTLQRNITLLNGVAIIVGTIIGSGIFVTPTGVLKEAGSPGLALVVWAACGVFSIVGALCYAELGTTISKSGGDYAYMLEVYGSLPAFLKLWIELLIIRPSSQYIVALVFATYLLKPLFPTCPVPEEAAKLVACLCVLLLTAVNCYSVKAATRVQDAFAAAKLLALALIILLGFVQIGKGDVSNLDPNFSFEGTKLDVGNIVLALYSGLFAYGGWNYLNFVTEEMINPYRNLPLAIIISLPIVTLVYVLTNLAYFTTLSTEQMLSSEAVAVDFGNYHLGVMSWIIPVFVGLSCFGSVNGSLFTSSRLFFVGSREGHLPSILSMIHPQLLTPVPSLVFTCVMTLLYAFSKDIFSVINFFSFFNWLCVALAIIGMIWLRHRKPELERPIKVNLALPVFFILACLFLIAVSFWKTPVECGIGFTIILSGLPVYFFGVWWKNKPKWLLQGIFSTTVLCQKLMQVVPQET
UniProt Q92536: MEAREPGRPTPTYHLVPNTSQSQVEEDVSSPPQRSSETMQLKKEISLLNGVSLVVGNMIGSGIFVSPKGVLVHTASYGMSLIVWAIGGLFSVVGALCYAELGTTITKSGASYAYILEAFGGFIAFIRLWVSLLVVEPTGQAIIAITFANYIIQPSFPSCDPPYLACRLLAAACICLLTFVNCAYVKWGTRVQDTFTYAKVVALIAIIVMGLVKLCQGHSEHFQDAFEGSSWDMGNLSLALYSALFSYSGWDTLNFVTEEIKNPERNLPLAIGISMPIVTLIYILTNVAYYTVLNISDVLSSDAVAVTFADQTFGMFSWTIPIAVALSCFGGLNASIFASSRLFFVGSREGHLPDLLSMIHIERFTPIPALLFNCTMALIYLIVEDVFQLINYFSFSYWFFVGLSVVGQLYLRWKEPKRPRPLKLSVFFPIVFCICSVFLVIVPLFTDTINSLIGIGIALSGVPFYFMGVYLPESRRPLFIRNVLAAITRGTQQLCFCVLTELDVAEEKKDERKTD

B1: Kv1.1-nanoluc, Q09470 1-495 (protein)
chain: T1 chain

Experiments:
Kv1.1-nanoluc (human) = Kv1.1-nanoluc (human) (UniProt Q09470); experiment: FRET or BRET; live mouse LM fibroblasts co-transfected with Kv1.1-nanoluc (donor) and an mEGFP-tagged acceptor; Nano-Glo live cell assay reagent; emission spectra 400-700 nm; nanoluc-subtracted EGFP emission, AUC normalised to Kv1.1-nanoluc + EGFP-Kv1.1
[1] = target: T1, Kv1.1-nanoluc (human), Q09470; experiment: as above; conditions: remark: other sources report otherwise

| Molecule | binding (Kv1.1-nanoluc (human)) | binding [1] |
| --- | --- | --- |
| EGFP-Slc7a5 (from UniProt Q01650 1-507) | binds |  |
| EGFP-Slc7a6 (from UniProt Q92536 1-515) | no binding |  |
| B1 |  | binds |

Reference: article PMC7690953
